# Test results published in patent US12331032B2, “Quinone reductase 2 inhibitor compounds and uses thereof” (DUKE UNIVERSITY, priority 2018, dated 2025).
# For at least one compound, name, drawing or mass did not settle the structure.
# Experiments:
# Wildtype HEK293 cells = assay: Menadione-induced loss of mitochondrial membrane potential (TMRE); details: 1 h pre-treatment, menadione 4 h
# MRL/lpr mouse = assay: anti-cDNA autoantibody production in MRL/lpr lupus model; assay type: in vivo; details: 1 and 3 weeks after starting therapy
# [1] = system: mouse model of closed head injury (TBI); assay: Rotorod vestibulomotor function after closed head injury (TBI); assay type: in vivo; details: after 1 week and 4 weeks following TBI
# Description: The TBI model involves a single impact designed to avoid skull fracture. Injury is produced predominantly through acceleration/deceleration forces. For this model, therapeutic compounds were delivered i.p. at 4 hours following TBI, and then once weekly thereafter for the duration of the experiment, which terminated after 28 days following assessment of spatial learning and memory. […] Mice were tested on Rotorod for 5 consecutive days post TBI, then on day 7 and day 28.
# [2] = system: mouse model of closed head injury (TBI); assay: High resolution ex vivo MRI / DTI of brain after TBI; assay type: in vivo
# [3] = system: RAW 264.7 murine macrophage cells; assay: Microparticle (MP) release after Toll receptor ligand stimulation; assay type: cell-based; details: stimulation with CpG oligodeoxynucleotide DNA
# [4] = system: RAW 264.7 murine macrophage cells; assay: TNF alpha release after TOLL receptor ligand stimulation; assay type: cell-based; details: stimulation with CpG and PIC
structure (smiles),measurement,setting,value
"COc1ccc2c(NCc3cccnc3)ccnc2c1 [QR2I-44, 7-methoxy-4-(pyridin-3-yl) methylaminoquinoline]",prevention of menadione-induced loss of membrane potential (TMRE),Wildtype HEK293 cells,significantly prevented the mendione-induced loss of membrane potential
same,anti-cDNA autoantibody production,MRL/lpr mouse,gradual therapeutic inhibition of auto-antibodies in this model that is also dose-dependent
same,vestibular motor function versus the other QR2 inhibitors,[1],durable improvements in vestibular motor function
same,fractional anisotropy (FA) of corpus collosum/external capsule (CC/EC),"[2]; DTI 6 weeks after TBI, versus control",significantly improved
same,volume loss in the hippocampus following TBI,"[2]; ex vivo MRI 6 weeks after TBI, versus vehicle control",substantially mitigated
same,microparticle (MP) release,[3],reducing microparticle (MP) release
same,inhibition of TNF alpha release,[4],inhibition of release is dose-dependent
